According to PubChem BioAssay AID540276 (National Center for Advancing Translational Sciences (NCATS), 2011):
The campaign covered roughly 300,000 compounds. About 5,400 (1.8%) were called active. This list was built around the results that the source calls inconclusive (neither active nor inactive); the mix of calls is not that of the screen. Calls follow the shape of the full dose curve; tested in HEK293 cells. A potency beside an inconclusive call is a rough fit, not a confirmed value.

Experiment: qHTS for inhibitors of binding or entry into cells for Marburg Virus
Settings: Marburg virus pseudotyped entry inhibition, cell reporter; activity change, negative = inhibition: at 37.8 µM (top of the series) unless noted
% is scaled to controls: 0 for no effect and ±100 for the full control effect; potency is read from the fitted curve at half-maximal effect.

SMILES | Potency | activity change, negative = inhibition
Cc1ccc(C2CC(=O)NC(SCc3ccccc3)=C2C#N)cc1 (centres undefined) | inconclusive: 0.461 µM [inhibitor, full curve, poor fit] | –
Cc1ccc(CNC(=O)/C=C/c2cccs2)cc1 | – | inactive: 22.3%
CC1=C(C(=O)Nc2ccccc2)C(c2ccc(O)cc2)n2nc(-c3ccc(Cl)cc3)nc2N1 (centres undefined) | inconclusive: 25.1 µM [inhibitor, single point] | –
CC(=NNC(=O)c1ccc2nc[nH]c2c1)c1ccc(Br)cc1 | – | inactive: -4.25% [at 46.1 µM]
CCC(C)[C@H](N)c1nnc(SCc2ccc(Cl)c(Cl)c2)o1 (some centres undefined) | – | inactive: 10.6% [at 46.1 µM]
CN(C)CCNC(=O)/C(=C/c1ccc(-c2ccc(Cl)cc2Cl)o1)NC(=O)c1ccccc1 | active: 6.31 µM | –
CCSc1nc2c(c(=O)[nH]1)C(c1cccnc1)C(C(=O)OC(C)C)=C(C)N2 (centres undefined) | inconclusive: 35.5 µM [activator, single point] | –
CC1=C(C(=O)OC2CCCCC2)C(c2ccccc2)NC(=O)N1 (centres undefined) | inconclusive: 10 µM [inhibitor, partial curve, poor fit] | –
c1ccc(Oc2nc(-c3ccccn3)nc3ccccc23)cc1 | inconclusive: 5.62 µM [inhibitor, single point] | –
CCOC(=O)CSc1cccc2cccnc12 | inconclusive: 8.91 µM [inhibitor, partial curve, poor fit] | –
CC1(C)Cc2c(sc(NC(=O)C(C)(C)C)c2C#N)C(C)(C)N1 | inconclusive: 1.26 µM [activator, single point] | –
Cc1ccc(S(=O)(=O)CC(=O)N2CCN(c3cccc(C(F)(F)F)c3)CC2)cc1 | – | inactive: -13.3%
O=C(CCC1N=C2c3ccccc3N=C(SCc3cccc(Cl)c3)N2C1=O)NCCc1ccccc1 (centres undefined) | inconclusive: 22.4 µM [inhibitor, single point] | –
Cc1nn(-c2ccccc2)c2c1C(c1ccc([N+](=O)[O-])cc1)N1C(=N2)C(=O)Nc2ccccc21 (centres undefined) | inconclusive: 35.5 µM [inhibitor, partial curve, poor fit] | –
COC(=O)C1=C(NC(=O)c2cccs2)CCS1 | – | inactive: -0.904%
Cc1ccccc1/C=C\c1nc2ccccc2c(=O)[nH]1 | inconclusive: 4.47 µM [inhibitor, full curve, poor fit] | –
CSc1ccccc1N1CCN(CCCCCC(=O)NC2CCCc3ccccc32)CC1 (centres undefined) | inconclusive: 18.3 µM [inhibitor, single point] | –
O=C(NCC1CCCO1)C1CCN(C2CCN(C(=O)Cc3ccsc3)CC2)CC1 (centres undefined) | – | inactive: 9.24% [at 46.1 µM]
Cc1nc(-c2ccc(Br)cc2)ccc1C(=O)O | inconclusive: 1.03 µM [inhibitor, partial curve] | –
Cc1c(C(=O)N2CCN(c3ncccn3)CC2)sc2nc3n(c(=O)c12)CCCC3 | inconclusive: 5.62 µM [activator, single point] | –
COc1ccc(NC(=O)CSc2cn(CCNC(=O)c3ccc(OC)cc3)c3ccccc23)cc1 | inconclusive: 3.55 µM [inhibitor, full curve, poor fit] | –
CCOC(=O)c1c(NC(=O)CSc2nnc(-c3c[nH]c4ccccc34)n2CCOC)sc2c1CCCC2 | – | inactive: -24.8%
O=C(Nc1nc(-c2ccccc2)cs1)c1ccc(S(=O)(=O)N2CCc3ccccc32)cc1 | inconclusive: 13 µM [inhibitor, partial curve, poor fit] | –

A draw from above in order of molar mass, smallest number first:
SMILES | Potency | activity change, negative = inhibition
CCOC(=O)CSc1cccc2cccnc12 | inconclusive: 8.91 µM [inhibitor, partial curve, poor fit] | –
Cc1ccc(CNC(=O)/C=C/c2cccs2)cc1 | – | inactive: 22.3%
Cc1ccccc1/C=C\c1nc2ccccc2c(=O)[nH]1 | inconclusive: 4.47 µM [inhibitor, full curve, poor fit] | –
Cc1nc(-c2ccc(Br)cc2)ccc1C(=O)O | inconclusive: 1.03 µM [inhibitor, partial curve] | –
CC1=C(C(=O)OC2CCCCC2)C(c2ccccc2)NC(=O)N1 (centres undefined) | inconclusive: 10 µM [inhibitor, partial curve, poor fit] | –
CC1(C)Cc2c(sc(NC(=O)C(C)(C)C)c2C#N)C(C)(C)N1 | inconclusive: 1.26 µM [activator, single point] | –
Cc1ccc(C2CC(=O)NC(SCc3ccccc3)=C2C#N)cc1 (centres undefined) | inconclusive: 0.461 µM [inhibitor, full curve, poor fit] | –
CCC(C)[C@H](N)c1nnc(SCc2ccc(Cl)c(Cl)c2)o1 (some centres undefined) | – | inactive: 10.6% [at 46.1 µM]
CCSc1nc2c(c(=O)[nH]1)C(c1cccnc1)C(C(=O)OC(C)C)=C(C)N2 (centres undefined) | inconclusive: 35.5 µM [activator, single point] | –
Cc1c(C(=O)N2CCN(c3ncccn3)CC2)sc2nc3n(c(=O)c12)CCCC3 | inconclusive: 5.62 µM [activator, single point] | –
O=C(NCC1CCCO1)C1CCN(C2CCN(C(=O)Cc3ccsc3)CC2)CC1 (centres undefined) | – | inactive: 9.24% [at 46.1 µM]
Cc1ccc(S(=O)(=O)CC(=O)N2CCN(c3cccc(C(F)(F)F)c3)CC2)cc1 | – | inactive: -13.3%
CSc1ccccc1N1CCN(CCCCCC(=O)NC2CCCc3ccccc32)CC1 (centres undefined) | inconclusive: 18.3 µM [inhibitor, single point] | –
CC1=C(C(=O)Nc2ccccc2)C(c2ccc(O)cc2)n2nc(-c3ccc(Cl)cc3)nc2N1 (centres undefined) | inconclusive: 25.1 µM [inhibitor, single point] | –
O=C(Nc1nc(-c2ccccc2)cs1)c1ccc(S(=O)(=O)N2CCc3ccccc32)cc1 | inconclusive: 13 µM [inhibitor, partial curve, poor fit] | –
CN(C)CCNC(=O)/C(=C/c1ccc(-c2ccc(Cl)cc2Cl)o1)NC(=O)c1ccccc1 | active: 6.31 µM | –
COc1ccc(NC(=O)CSc2cn(CCNC(=O)c3ccc(OC)cc3)c3ccccc23)cc1 | inconclusive: 3.55 µM [inhibitor, full curve, poor fit] | –
O=C(CCC1N=C2c3ccccc3N=C(SCc3cccc(Cl)c3)N2C1=O)NCCc1ccccc1 (centres undefined) | inconclusive: 22.4 µM [inhibitor, single point] | –
CCOC(=O)c1c(NC(=O)CSc2nnc(-c3c[nH]c4ccccc34)n2CCOC)sc2c1CCCC2 | – | inactive: -24.8%

The list continues:

SMILES | Potency | activity change, negative = inhibition
CSc1ccccc1OCc1cc(C(=O)N(C)Cc2cnccn2)no1 | inconclusive: 2 µM [activator, partial curve, poor fit] | –
CC1(C)COC(c2ccccc2Cl)OC1 | inconclusive: 3.98 µM [inhibitor, single point] | –
Cc1ccc(S(=O)(=O)/N=C(\N)Nc2nc(C)c3ccccc3n2)cc1 | inconclusive: 35.5 µM [inhibitor, single point] | –
O=C(CNC(=O)c1ccco1)NCC(=O)OCc1ccc(Cl)cc1Cl | – | inactive: -20.7% [at 46.1 µM]
Cc1nnc(SCC(=O)Nc2cccc([N+](=O)[O-])c2)n1CC1CCCO1 (centres undefined) | – | inactive: 8.36%
CC1CN(c2ccc(Oc3ccccc3)cc2)c2nc3c(c(=O)[nH]c(=O)n3C)n2C1 (centres undefined) | inconclusive: 6.31 µM [inhibitor, single point] | –
CCC(C)(C)NC(=O)C(c1ccc(OC)cc1)N(C(=O)CCC(=O)Nc1cc(C)on1)c1cc(OC)ccc1OC (centres undefined) | inconclusive: 14.1 µM [inhibitor, single point] | –
CCOc1ccc2c(C)nc(NC3=NC(C)(C)C=C(C)N3)nc2c1 | inconclusive: 14.1 µM [inhibitor, partial curve, poor fit] | –
Cc1cccc(C)c1NC(=O)c1nc(SC(C)C)ncc1Cl | inconclusive: 8.91 µM [inhibitor, partial curve, poor fit] | –
Cc1onc(-c2ccccc2)c1C(=O)N1CCOC12CCN(c1cccc(F)n1)CC2 | inconclusive: 17.8 µM [inhibitor, single point] | –
CCOc1ccc(-c2c(C)sc3nc[nH]c(=O)c23)cc1 | inconclusive: 11.2 µM [inhibitor, partial curve, poor fit] | –
Cn1nnnc1NCc1cccc(Cl)c1 | inconclusive: 35.5 µM [inhibitor, single point] | –
Nc1nc(COc2ccc(F)cc2)nc(N2CCCCC2)n1 | – | inactive: 19.4% [at 46.1 µM]
CCOc1ccc(Nc2nc(N)nc(CCl)n2)cc1 | inconclusive: 35.5 µM [inhibitor, single point] | –
COc1ccc(N2CCN(C(=O)c3ccccc3N(C)S(=O)(=O)c3ccccc3)CC2)cc1 | inconclusive: 14.1 µM [inhibitor, partial curve, poor fit] | –
Cc1cc(C(=O)N/N=C/c2ccncc2)c2ccccc2n1 | – | inactive: -23.2% [at 46.1 µM]
CC(/C=N/NC(=O)c1ccc(CN2c3cccc4cccc(c34)S2(=O)=O)cc1)c1ccccc1 (centres undefined) | inconclusive: 0.398 µM [activator, full curve, poor fit] | –
Cc1onc(-c2ccccc2)c1C(=O)NNC(=S)NC(=O)c1ccc(Cl)cc1Cl | inconclusive: 35.5 µM [inhibitor, single point] | –
COC(=O)c1cc(OC)c(OC)cc1NC(=O)c1cc(-c2ccccc2)nc2ccccc12 | – | inactive: -15.4%
Cc1cccc(NC(=O)CCn2ccnc2C)c1 | – | inactive: 1.9%
Cc1ccc2[nH]c3c(=O)n(CC(=O)NCCCN4CCN(c5ccc(F)cc5)CC4)ncc3c2c1 | – | inactive: 4.53% [at 46.1 µM]
O=C(CCNS(=O)(=O)c1cccs1)Nc1nccs1 | – | inactive: 15.3%
COC(=O)c1sccc1NC(=O)CC1C(=O)NCCN1C(=O)Nc1cc(Cl)ccc1OC (centres undefined) | inconclusive: 22.4 µM [inhibitor, partial curve, poor fit] | –

SMILES | Potency | activity change, negative = inhibition
Cc1cccc(NP(=O)(Oc2ccccc2)Oc2ccccc2)c1C | inconclusive: 17.8 µM [inhibitor, single point] | –
O=C1Nc2ccc(Br)cc2/C1=C/C(=O)c1ccccc1 | inconclusive: 0.891 µM [inhibitor, full curve, poor fit] | –
Cc1ccc(NS(=O)(=O)N2CCOCC2)cc1 | inconclusive: 2.51 µM [inhibitor, single point] | –
Nc1nnc(SCc2coc(-c3ccc(Cl)cc3)n2)s1 | inconclusive: 1.41 µM [inhibitor, partial curve, poor fit] | –
CC(=O)NCCn1c(SCC(=O)OCc2ccccc2)nc2ccccc2c1=O | inconclusive: 29.1 µM [inhibitor, single point] | –
O=C(Cc1cccs1)Nc1nnc(C2CC2)s1 | inconclusive: 7.08 µM [inhibitor, partial curve, poor fit] | –
Cn1c(=O)c2c(ncn2CC(=O)OCC(=O)Nc2ccc(Cl)cc2Cl)n(C)c1=O | inconclusive: 1.78 µM [inhibitor, partial curve, poor fit] | –
O=C1CC(C(=O)Nc2ccc(Br)cc2)C2(CCCC2)O1 (centres undefined) | – | inactive: 2.46%
Cc1nc(NC(=O)C2CC3CCCC(C2)C3=O)sc1C (centres undefined) | inconclusive: 15.8 µM [activator, partial curve, poor fit] | –
CCOC(=O)c1c(C)oc2ccc(N(C(=O)c3ccncc3)S(=O)(=O)c3ccc(F)cc3)cc12 | inconclusive: 14.1 µM [inhibitor, single point] | –
CCOC(=O)C1=C(NC(=S)NC(=O)c2ccccc2)c2ccccc2CC1C(C)C (centres undefined) | active: 0.794 µM | –
CCN(Cc1ccccc1)C(=O)CCS(=O)(=O)c1cc(Br)cc2c1N(C(=O)C1CC1)CC2 | inconclusive: 14.1 µM [inhibitor, single point] | –
O=C(CSc1nnc(NC(=O)c2ccc3c(c2)OCO3)s1)NCc1ccco1 | active: 7.08 µM | –
Cc1c(CNCCCc2ccccc2)c(C(=O)O)c(C)n1Cc1ccccc1 | inconclusive: 22.4 µM [inhibitor, partial curve, poor fit] | –
CC(=O)c1ccc(NC(=O)CSc2ccc(-c3ccco3)nn2)cc1 | – | inactive: 2.59%
Cc1cc2n(n1)CCCN2C(=O)Nc1ccc(C)c(Cl)c1 | – | inactive: 3.67% [at 46.1 µM]
CCOC(=O)C1=NNC(C(=O)c2ccccc2)C1c1ccc(Cl)cc1 (centres undefined) | inconclusive: 25.1 µM [inhibitor, partial curve, poor fit] | –
CCOc1ccc(/C=N/NC(=O)c2ccccc2NC(=O)c2ccc(OC)cc2)cc1 | – | inactive: 2.05%
O=C(Nc1ccccc1)N1CCc2scc[n+]2-c2ccccc21 | – | inactive: 4.42%
CCCCOc1ccc(CN2CCN(CCO)CC2)cc1 | inconclusive: 5.17 µM [activator, single point] | –
Clc1ccc(-c2c[nH]c3ccccc23)nn1 | – | inactive: 9.49% [at 46.1 µM]
Cc1cnc([N+](=O)[O-])n1CCOC(=O)NC(=O)c1ccccc1Cl | – | inactive: 11.5% [at 46.1 µM]
Cc1ccc2nc(-c3ccc(NC(=O)CN(c4ccccc4C)S(C)(=O)=O)cc3)sc2c1 | inconclusive: 35.5 µM [inhibitor, single point] | –
